Experimental data as given in the supplement of paper PMC4371806.
Over roughly 1,600 compounds, “plate-normalized OD600 growth (mean of duplicates)” has its median near 0.31; the lowest 2% begin near 0.23. The list shows a part of the results.

System: Escherichia coli BW25113
Experiment: plate-normalized OD600 growth (mean of duplicates) (OD600 (normalized)); higher = more growth (less inhibition)
Settings: 10 µM
Procedure: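 E. coli BW25113 in LB (100 µl, 96-well, no shaking) was exposed to 10 µM of each compound (here the ChemBridge subset of a ~30,000-member library) and grown at 37°C for 24 h or 15°C for 48 h, in duplicate. Growth was read as OD600 and the duplicate ODs were normalized across screening plates to correct plate-to-plate variation.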

## O=C1CC(C2CCCO2)C(=O)N1c1ccc(Cl)cc1 (stereo not drawn)
temperature: 15°C, 48 h
  plate-normalized OD600 growth: 0.243
temperature: 37°C, 24 h
  plate-normalized OD600 growth: 0.618

## COc1ccc(CCNC(=O)CSc2nc(N)c3c4c(sc3n2)CCCC4)cc1
temperature: 15°C, 48 h
  plate-normalized OD600 growth: 0.234
temperature: 37°C, 24 h
  plate-normalized OD600 growth: 0.595

## CN1CCN(NC(=O)c2ccc(Cl)cc2[N+](=O)[O-])CC1
temperature: 15°C, 48 h
  plate-normalized OD600 growth: 0.24
temperature: 37°C, 24 h
  plate-normalized OD600 growth: 0.608

## Cc1nn(-c2ccccc2)c(C)c1CC(=O)O
temperature: 15°C, 48 h
  plate-normalized OD600 growth: 0.237
temperature: 37°C, 24 h
  plate-normalized OD600 growth: 0.617

## O=C(/C=C/c1ccc(-c2ccc(F)cc2)o1)c1cccs1
temperature: 15°C, 48 h
  plate-normalized OD600 growth: 0.253
temperature: 37°C, 24 h
  plate-normalized OD600 growth: 0.617

## O=C1NN=C(c2ccccc2O)C1[N+](=O)[O-] (stereo not drawn)
temperature: 15°C, 48 h
  plate-normalized OD600 growth: 0.254
temperature: 37°C, 24 h
  plate-normalized OD600 growth: 0.613

## CCOc1ccccc1/C=C/C(=O)c1cccs1
temperature: 15°C, 48 h
  plate-normalized OD600 growth: 0.245
temperature: 37°C, 24 h
  plate-normalized OD600 growth: 0.608

## COc1ccc(CC(=O)N(Cc2ccccc2)Cc2ccccc2)cc1
temperature: 15°C, 48 h
  plate-normalized OD600 growth: 0.229
temperature: 37°C, 24 h
  plate-normalized OD600 growth: 0.62

## CCC(Cc1ccccc1)NC(=O)c1ccccc1 (stereo not drawn)
temperature: 15°C, 48 h
  plate-normalized OD600 growth: 0.267
temperature: 37°C, 24 h
  plate-normalized OD600 growth: 0.624

## Cc1cc(OCC(=O)N(C)Cc2ccccc2)ccc1Cl
temperature: 15°C, 48 h
  plate-normalized OD600 growth: 0.242
temperature: 37°C, 24 h
  plate-normalized OD600 growth: 0.612

## O=C(O)CC1Sc2ccccc2NC1=O (stereo not drawn)
temperature: 15°C, 48 h
  plate-normalized OD600 growth: 0.272
temperature: 37°C, 24 h
  plate-normalized OD600 growth: 0.65

## O=c1c2ccccc2nc(CSc2nnnn2-c2ccccc2)n1-c1ccccc1
temperature: 15°C, 48 h
  plate-normalized OD600 growth: 0.262
temperature: 37°C, 24 h
  plate-normalized OD600 growth: 0.628

## N#CC1=C(N)N2C(=C(C#N)C1c1c(F)cccc1Cl)Sc1ccccc12 (stereo not drawn)
temperature: 15°C, 48 h
  plate-normalized OD600 growth: 0.27
temperature: 37°C, 24 h
  plate-normalized OD600 growth: 0.622

## O=C(O)c1ccc(NCCCO)c([N+](=O)[O-])c1
temperature: 15°C, 48 h
  plate-normalized OD600 growth: 0.257
temperature: 37°C, 24 h
  plate-normalized OD600 growth: 0.613

## COc1ccccc1NC(=O)CCC(=O)O
temperature: 15°C, 48 h
  plate-normalized OD600 growth: 0.253
temperature: 37°C, 24 h
  plate-normalized OD600 growth: 0.616

## O=Cc1ccc2ccc3ccc(C=O)nc3c2n1
temperature: 15°C, 48 h
  plate-normalized OD600 growth: 0.24
temperature: 37°C, 24 h
  plate-normalized OD600 growth: 0.608

## C=CCSc1nc(N)c(C#N)c(CC)c1C#N
temperature: 15°C, 48 h
  plate-normalized OD600 growth: 0.239
temperature: 37°C, 24 h
  plate-normalized OD600 growth: 0.605

## O=c1[nH]nc(-c2ccccc2)c2cc3c(-c4ccccc4)n[nH]c(=O)c3cc12
temperature: 15°C, 48 h
  plate-normalized OD600 growth: 0.243
temperature: 37°C, 24 h
  plate-normalized OD600 growth: 0.601

## O=c1cc(-c2ccc(Cl)cc2)[nH][nH]c1=O
temperature: 15°C, 48 h
  plate-normalized OD600 growth: 0.277
temperature: 37°C, 24 h
  plate-normalized OD600 growth: 0.636

## Cc1cc(C)n(C(=O)C(c2ccccc2)c2ccccc2)n1
temperature: 15°C, 48 h
  plate-normalized OD600 growth: 0.237
temperature: 37°C, 24 h
  plate-normalized OD600 growth: 0.61

## CCOc1c([N+](=O)[O-])cc2c(C)c(C(=O)N3CCN(C)CC3)oc2c1OCC
temperature: 15°C, 48 h
  plate-normalized OD600 growth: 0.241
temperature: 37°C, 24 h
  plate-normalized OD600 growth: 0.617

## Cn1cc(/C=C/c2nc3ccccc3c(=O)[nH]2)c2ccccc21
temperature: 15°C, 48 h
  plate-normalized OD600 growth: 0.248
temperature: 37°C, 24 h
  plate-normalized OD600 growth: 0.604

## O=C(c1ccc(Br)o1)N1CCN(c2ccc([N+](=O)[O-])cc2)CC1
temperature: 15°C, 48 h
  plate-normalized OD600 growth: 0.262
temperature: 37°C, 24 h
  plate-normalized OD600 growth: 0.622

## Cc1ccc(NCC(O)COc2ccccc2)cc1C (stereo not drawn)
temperature: 15°C, 48 h
  plate-normalized OD600 growth: 0.254
temperature: 37°C, 24 h
  plate-normalized OD600 growth: 0.638

## CC(N=C1NC(C)(C)Cc2ccccc21)C(=O)O (stereo not drawn)
temperature: 15°C, 48 h
  plate-normalized OD600 growth: 0.253
temperature: 37°C, 24 h
  plate-normalized OD600 growth: 0.628

## NS(=O)(=O)c1cccc(S(=O)(=O)c2ccc(Cl)c(Cl)c2)c1
temperature: 15°C, 48 h
  plate-normalized OD600 growth: 0.253
temperature: 37°C, 24 h
  plate-normalized OD600 growth: 0.608

## Cc1ccc(OCCCNC(C)(C)C)cc1
temperature: 15°C, 48 h
  plate-normalized OD600 growth: 0.244
temperature: 37°C, 24 h
  plate-normalized OD600 growth: 0.608

## O=C(NC1CCN(Cc2ccccc2)CC1)c1ccccc1Br
temperature: 15°C, 48 h
  plate-normalized OD600 growth: 0.272
temperature: 37°C, 24 h
  plate-normalized OD600 growth: 0.625

## CC(C)NS(=O)(=O)c1cccc2cccnc12
temperature: 15°C, 48 h
  plate-normalized OD600 growth: 0.257
temperature: 37°C, 24 h
  plate-normalized OD600 growth: 0.621

## CSc1nc(-c2ccccc2)nc(SC)c1C(C)=O
temperature: 15°C, 48 h
  plate-normalized OD600 growth: 0.251
temperature: 37°C, 24 h
  plate-normalized OD600 growth: 0.607

## Cc1nc2c(c3c1[nH]c1ccccc13)C(=O)CC(C)(C)C2
temperature: 15°C, 48 h
  plate-normalized OD600 growth: 0.256
temperature: 37°C, 24 h
  plate-normalized OD600 growth: 0.605

## Nn1cnc2scc(-c3ccccc3)c2c1=O
temperature: 15°C, 48 h
  plate-normalized OD600 growth: 0.267
temperature: 37°C, 24 h
  plate-normalized OD600 growth: 0.626

## O=C(NC1CCCCC1)C1CC1c1ccccc1 (stereo not drawn)
temperature: 15°C, 48 h
  plate-normalized OD600 growth: 0.25
temperature: 37°C, 24 h
  plate-normalized OD600 growth: 0.606

## N#CC1=C(SCc2ccccc2)NC(=O)CC1c1ccc(O)cc1 (stereo not drawn)
temperature: 15°C, 48 h
  plate-normalized OD600 growth: 0.233
temperature: 37°C, 24 h
  plate-normalized OD600 growth: 0.607

## COc1c(Cl)cnn(-c2ccccc2)c1=O
temperature: 15°C, 48 h
  plate-normalized OD600 growth: 0.231
temperature: 37°C, 24 h
  plate-normalized OD600 growth: 0.633

## COCCOC(=O)Nc1nc2ccc(OC)cc2s1
temperature: 15°C, 48 h
  plate-normalized OD600 growth: 0.236
temperature: 37°C, 24 h
  plate-normalized OD600 growth: 0.604

## O=[N+]([O-])c1ccc2[nH]c3c(c2c1)CCCC3NC1CCN(CCc2ccccc2)CC1 (stereo not drawn)
temperature: 15°C, 48 h
  plate-normalized OD600 growth: 0.249
temperature: 37°C, 24 h
  plate-normalized OD600 growth: 0.578

## O=C(c1cccs1)N1CCc2ccccc21
temperature: 15°C, 48 h
  plate-normalized OD600 growth: 0.242
temperature: 37°C, 24 h
  plate-normalized OD600 growth: 0.636

## COc1ccc(O)c(CN2CCC(N3CCCCC3)CC2)c1
temperature: 15°C, 48 h
  plate-normalized OD600 growth: 0.277
temperature: 37°C, 24 h
  plate-normalized OD600 growth: 0.627

## C=CCSc1nc(O)c(CC)c(=O)n1-c1ccccc1
temperature: 15°C, 48 h
  plate-normalized OD600 growth: 0.233
temperature: 37°C, 24 h
  plate-normalized OD600 growth: 0.62

## COc1cc(Br)c(CN2CCCN(C)CC2)cc1OC
temperature: 15°C, 48 h
  plate-normalized OD600 growth: 0.268
temperature: 37°C, 24 h
  plate-normalized OD600 growth: 0.604

## N#CC1=C(SCC(N)=O)NC(=O)C(C#N)C12CCCCC2 (stereo not drawn)
temperature: 15°C, 48 h
  plate-normalized OD600 growth: 0.253
temperature: 37°C, 24 h
  plate-normalized OD600 growth: 0.621

## Cc1cccc(NS(=O)(=O)c2cccc(C(=O)Nc3ccccc3C)c2)c1
temperature: 15°C, 48 h
  plate-normalized OD600 growth: 0.245
temperature: 37°C, 24 h
  plate-normalized OD600 growth: 0.591

## CN1CCCN(Cc2cccc([N+](=O)[O-])c2)CC1
temperature: 15°C, 48 h
  plate-normalized OD600 growth: 0.22
temperature: 37°C, 24 h
  plate-normalized OD600 growth: 0.627

## CC(C)Cc1cc(-c2cccc(Br)c2)c(C#N)c(N)n1
temperature: 15°C, 48 h
  plate-normalized OD600 growth: 0.236
temperature: 37°C, 24 h
  plate-normalized OD600 growth: 0.615

## CN1CCCC1CCNC1C2CC3CC(C2)CC1C3 (stereo not drawn)
temperature: 15°C, 48 h
  plate-normalized OD600 growth: 0.248
temperature: 37°C, 24 h
  plate-normalized OD600 growth: 0.635

## COc1cccc(C(=O)Nc2nc3ccc(Cl)cc3s2)c1
temperature: 15°C, 48 h
  plate-normalized OD600 growth: 0.242
temperature: 37°C, 24 h
  plate-normalized OD600 growth: 0.584

## N#CSCCCCOc1ccccc1Cl
temperature: 15°C, 48 h
  plate-normalized OD600 growth: 0.251
temperature: 37°C, 24 h
  plate-normalized OD600 growth: 0.605

## O=C(Nc1ccc(F)cc1F)c1cccc(Cl)c1
temperature: 15°C, 48 h
  plate-normalized OD600 growth: 0.245
temperature: 37°C, 24 h
  plate-normalized OD600 growth: 0.6

## COc1ccc([N+](=O)[O-])cc1NCc1ccccc1Br
temperature: 15°C, 48 h
  plate-normalized OD600 growth: 0.27
temperature: 37°C, 24 h
  plate-normalized OD600 growth: 0.627

## C=C(C)CN(CC)C1CCN(C(C)=O)CC1
temperature: 15°C, 48 h
  plate-normalized OD600 growth: 0.226
temperature: 37°C, 24 h
  plate-normalized OD600 growth: 0.627

## O=S(=O)(NCCN1CCCC1)c1cccc2nsnc12
temperature: 15°C, 48 h
  plate-normalized OD600 growth: 0.245
temperature: 37°C, 24 h
  plate-normalized OD600 growth: 0.616

## CCOC(=O)N1CCN(Cc2c(F)cccc2F)CC1
temperature: 15°C, 48 h
  plate-normalized OD600 growth: 0.263
temperature: 37°C, 24 h
  plate-normalized OD600 growth: 0.656

## OC1CCN(Cc2c(Cl)cccc2Cl)CC1
temperature: 15°C, 48 h
  plate-normalized OD600 growth: 0.257
temperature: 37°C, 24 h
  plate-normalized OD600 growth: 0.629
